Source: patent publication US10058584B2, “Methods of improving behavioral therapies” (Emory University, priority 2010, dated 2018)
Some entries share one result that the patent states for a list of compounds.

Tested on: female prairie voles
Experiment: Partner preference test immediately after 6 hour cohabitation (experiment 1)
Assay type: in vivo, prairie vole
Conditions: typically requires 24 hrs of cohabitation in the absence of mating; FIG. 1
Source text: Social bonding in prairie voles is a complex social cognitive process, which involves the synthesis of social motivation, social information process and social learning. Bonding can be efficiently assayed in the laboratory using a partner preference paradigm (Ahern, 2009). The formation of a partner preference in female prairie voles is dependent on OT (Williams, 1994). In the absence of mating, 24 hrs of cohabitation is typically needed for the development of a partner preference. However, OT administration accelerates partner preference formation to 6 hrs or less. […] Melanotan I (MTI) and Melanotan II (MTII), synthetic α-MSH analogues, which act on melanocortin ¾ receptors, and busprione (BUS), a 5-HT1a receptor partial agonist, We administered to female prairie voles and assessed partner preference. […]
Female prairie voles were injected intraperitoneally with either Melanotan II (1.10 mg/kg; Sigma Aldrich, St. Louis, Mo.), buspirone (8, 30 mg/kg; Sigma Aldrich, St. Louis, Mo.) or a saline control in a dissolved in a volume of 0.1 ml 0.1% sterile saline. […] The pairs were cohabitated for six hours and video recorded to monitor for sexual behavior. […] The videos were analyzed afterwards for mating attempts and animals that mated were excluded from the study. […] The time the subject spent in side by side contact with no joint motion was scored using the CleverSys Behavioral Analysis System. […]

Row | Compound | cohabitation period to partner preference formation
1 | O=C1CC2(CCCC2)CC(=O)N1CCCCN1CCN(c2ncccn2)CC1 [BUS, buspirone] | ≤ 6 h
2 | Ac-Nle-cyclo[Asp-His-D-Phe-Arg-Trp-Lys]-NH2 [MTII] | ≤ 6 h
